Measured values reported in patent publication US20160318982A1.
These are yes or no findings as the source states them, for the method shown. Some entries that bind do so weakly or less than the wild type. Sequences can lack the tags named with a protein.

Tests used:
[1] = biological target: T1, Biotin-G-G-His×6 biotinylated peptide conjugate; assay: native PAGE band shift, drop-wise mixing
T1 sequence (peptide, N-terminus biotinylated): GGHHHHHH

[2] = biological target: T1, Biotin-G-G-His×6 biotinylated peptide conjugate; assay: native PAGE band shift, streptavidin mixed with a dilution series of the peptide
[3] = biological target: T2, His×6-G×4-Biotin biotinylated peptide conjugate; assay: as above
T2 sequence (peptide, C-terminus biotinylated): HHHHHHGGGG

[4] = biological target: T1, Biotin-G-G-His×6 biotinylated peptide conjugate; assay: native PAGE band shift, one-step mixing (6 mL of 10 µM peptide with 0.8 mL of 20 µM streptavidin)

Measured: binding

streptavidin (salt-free, Sigma 85878) (from UniProt P22629 37-163)
binds: all assays above
